Reference: PubChem BioAssay AID2205 (University of Pittsburgh Molecular Library Screening Center, 2009)
This is one part of the list.

assay: tubulin staining increase by stabilizing compounds – imaging, high-content imaging, primary screen (AID 2205); settings: HeLa tubulin immunostaining HCS, 24 h, at 10 µM; % Hoechst-high responders: measured here: nuclear condensation Hoechst responders, stronger effect = higher value, share of cells brighter than vehicle mean+2SD; toxicity: measured here: cytotoxicity by cell density;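 as to toxicity: 0% = mean cell density of plate MIN control wells and 100% = no cells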

Compound | % Hoechst-high responders [%] | toxicity [%]
CCOP1(=S)c2c(C)nn(CCC#N)c2N=C(c2ccccc2F)N1C (stereo not drawn) | 2.3 | 1.25
CCOP1(=S)c2c(C)nn(CCC#N)c2N=C(c2ccc(F)cc2)N1C (stereo not drawn) | 2.52 | 11.7
CC1=NCCc2c1[nH]c1ccccc21.O=[N+]([O-])c1cc([N+](=O)[O-])c(O)c([N+](=O)[O-])c1 | 1.72 | 1.65
O=[N+]([O-])c1ccc2c(c1)nnn2O | 2.09 | 5.66
COc1cc(C(=O)NCC2(N3CCOCC3)CCCCC2)cc(Cl)c1OC(C)C | 1.37 | 7.89
Cc1cc(C)cc(OP(C)(=O)Nc2ccc(C)cc2C)c1 (stereo not drawn) | 2.18 | 11.1
Cc1cccc(OCC(=O)OC2CN3CCC2CC3)c1 (stereo not drawn) | 1.51 | 5.55
CCOC(=O)c1ccc(NP(C)(=O)Oc2cc(C)cc(C)c2)cc1 (stereo not drawn) | 20.4 | 23.7
Cc1ccc(NCCc2c([N+](=O)[O-])cc([N+](=O)[O-])cc2[N+](=O)[O-])cc1 | 2.64 | 4.77
CP(=O)(Nc1cccc(Br)c1)Oc1ccccc1 (stereo not drawn) | 2.12 | 0.771
Cc1cc(C)cc(OP(C)(=O)Nc2ccccn2)c1 (stereo not drawn) | 2.32 | 5.22
Cc1ccc(C)c(NP(C)(=O)Oc2ccccc2)c1 (stereo not drawn) | 0.96 | 4.24
CCOP(=O)(Nc1cccc2ccccc12)OCC | 1.42 | 5.11
Cc1c2c(nc3ccccc13)SC(C(Cl)Cl)C2 (stereo not drawn) | 1.52 | 0.0746
CCN(CC)CCCOC(=O)C(O)(c1ccccc1)c1ccccc1 | 2.23 | 9.82
Cc1cc(=O)[nH]c(N[N+](=O)[O-])n1 | 2.15 | 8.71
O=C(OC1CN2CCC1CC2)C12CC3CC(CC(C3)C1)C2 (stereo not drawn) | 1.14 | 2.92
COc1ccc2nc(NP(=O)(c3ccccc3)c3ccccc3)sc2c1 | 1.34 | 5.87
COc1ccc(N/C(=N/P(=O)(N2CCOCC2)N2CCOCC2)N2CCOCC2)cc1 | 1.84 | 10.7
Cc1cccc(C)c1OP(C)(N)=O (stereo not drawn) | 3.86 | 8.6
CC(C)(C)c1ccc(OP(C)(=O)Nc2ccc(SC(F)(F)F)cc2)cc1 (stereo not drawn) | 2.79 | 7.07
Cc1ccc2nc3c(c(C)c2c1)CC(C(Cl)Cl)S3 (stereo not drawn) | 2.85 | 8.99
O=[N+]([O-])c1ccc2c(c1)C=Nc1ccccc1O2 | 1.56 | 4.6
ClCCSc1nnc(-c2cccnc2)o1 | 2.24 | 7.98
CCOC(=O)c1ccc(NP(C)(=O)Oc2ccccc2)cc1 (stereo not drawn) | 1.67 | 0.847

Compound | % Hoechst-high responders [%] | toxicity [%]
Cc1ccc(NP(C)(=O)Oc2ccccc2)c(C)c1 (stereo not drawn) | 1.97 | 2.63
COc1ccccc1OP(C)(=O)Nc1ccc(C)cc1 (stereo not drawn) | 1.63 | 6.98
O=[N+]([O-])c1cc([N+](=O)[O-])c(-c2ccn[nH]2)s1 | 2.55 | 7.98
COc1ccc(OP(C)(=O)Nc2cccc(F)c2)cc1 (stereo not drawn) | 1.44 | 10.1
CCN(CC)C(=S)SC(NC=O)C(Cl)(Cl)Cl (stereo not drawn) | 1.73 | 8.85
COc1ccccc1OP(C)(=O)Nc1cc(Cl)ccc1C (stereo not drawn) | 1.78 | 9.07
CC(C)NC(=O)NP(=O)(Oc1ccccc1)Oc1ccccc1 | 2.18 | 3.82
Cc1cc(C)cc(OP(C)(N)=O)c1 (stereo not drawn) | 2.12 | 6.8
Cc1cc(SC(NC(=O)c2ccccc2)C(Cl)(Cl)Cl)nc(C(C)C)n1 (stereo not drawn) | 2.28 | 6.61
CP(=S)(Nn1cnnc1)Oc1ccccc1 (stereo not drawn) | 1.25 | 5.03
COc1ccccc1OP(C)(=O)Nc1ccccc1 (stereo not drawn) | 1.08 | 1.9
O=P(Nc1ccccn1)(c1cccc2ccccc12)c1cccc2ccccc12 | 3.27 | 6.82
Cc1cc(SC(NC=O)C(Cl)(Cl)Cl)ncn1 (stereo not drawn) | 2.51 | 7.13
CP(=O)(Nc1ccccc1Br)Oc1ccccc1 (stereo not drawn) | 2.02 | 8.67
CP(=O)(Oc1ccccc1)OC(c1ccccc1)C(F)(F)F (stereo not drawn) | 3.04 | 7.87
Cc1cccc(C)c1OP(C)(=O)Nc1ccc(SC(F)(F)F)cc1 (stereo not drawn) | 2.11 | 4.09
COP1(=S)c2c(C)nn(CCC#N)c2N=C(c2ccc(F)cc2)N1C (stereo not drawn) | 2.75 | 4.17
Cc1cc(C)cc(OP(C)(=O)Nc2ccc(SC(F)(F)F)cc2)c1 (stereo not drawn) | 2.74 | 5.99
O=C(COc1ccccc1)OC1CN2CCC1CC2 (stereo not drawn) | 5.78 | 8.47
CP(=O)(NC(=O)Nc1ccccc1)Oc1ccccc1 (stereo not drawn) | 3.45 | 4.85
CCOP(C)(=S)SCC(=O)NC(C)C(=O)O (stereo not drawn) | 1.08 | 5.34
CCOC(=O)c1ccc(NP(C)(=O)Oc2ccc(OC)cc2)cc1 (stereo not drawn) | 3.44 | 7.36
CCC(C)N(CC(C)C)C(=S)SC(NC(C)=O)C(Cl)(Cl)Cl (stereo not drawn) | 0.874 | 0.21
CP(=O)(Nc1ccccn1)Oc1ccc(Cl)cc1 (stereo not drawn) | 1.1 | 4.02
